These are yes or no findings as the source states them, for the method shown. Some entries that bind do so weakly or less than the wild type.

The values that follow come from article PMC8804925.

In this experiment the target is respiratory syncytial virus matrix protein (M) (human respiratory syncytial virus (strain A2)) (UniProt P0DOE7). Kind of experiment: cryo-EM structure; cryo-ET with sub-tomogram averaging (Dynamo) of the envelope of filamentous RSV virions from infected A549 cells grown on the grid; 16 Å map of the matrix layer; X-ray structure of the M dimer fitted in Chimera/ChimeraX.

B1: respiratory syncytial virus matrix protein (M) (protein, UniProt P0DOE7 1-256)
chain: METYVNKLHEGSTYTAAVQYNVLEKDDDPASLTIWVPMFQSSMPADLLIKELANVNILVKQISTPKGPSLRVMINSRSAVLAQMPSKFTICANVSLDERSKLAYDVTTPCEIKACSLTCLKSKNMLTTVKDLTMKTLNPTHDIIALCEFENIVTSKKVIIPTYLRSISVRNKDLNTLENITTTEFKNAITNAKIIPYSGLLLVITVTDNKGAFKYIKPQSQFIVDLGAYLEKESIYYVTTNWKHTATRFAIKPMED
On to B1, for which the binding entry is given as “binds”.
